# Results from PubChem BioAssay AID493014 (National Center for Advancing Translational Sciences (NCATS), 2011).
# Among all 340,000 compounds or so, about 170 (0.05%) were called active. This list was built around the results that the source calls inconclusive (neither active nor inactive); the mix of calls is not that of the screen. Calls follow the shape of the dose curve; as a rule, active = well fitted inhibition curve with a large enough effect in the signal ratio, with a control signal flat (not every such curve was filed as active); inconclusive = small, poorly fitted or top-dose-only effect, or effect the other way, or a change in a side signal; inactive = flat fitted curve, though single readings scatter; the % refers to the signal ratio. Potencies of inconclusive entries are doubtful fits and often do not repeat.
# Assay: qHTS Assay to Find Inhibitors of Chronic Active B-Cell Receptor Signaling;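 as to activity change, negative = inhibition: plate controls were basal doxycycline-induced cells for no effect and cells given 10 µM MG132 for full effect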
# Conditions: ABC-DLBCL IkBa-CBG/CBR reporter, luminescence ratio (green luciferase fused to IkBa over red control in TMD8 lymphoma cells), 4 h; activity change, negative = inhibition: at 46.1 µM (top of the series)
# In short: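 TMD8 human ABC-DLBCL cells with doxycycline-inducible IκBα–green luciferase fusion and unfused red luciferase, in 0.5% FBS medium; compounds up to 46 uM, 4 h at 37C. Green/red luminescence ratio, filter-overlap corrected, fitted to concentration-response curves.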
# Potency is read from the fitted curve at half-maximal effect.
SMILES,"activity change, negative = inhibition",Potency
N/C(=N\OC(=O)c1cccc(C(F)(F)F)c1)c1cnccn1,inactive: -0.302%,
COC(=O)c1ccc(N=NN2CCCCC2)cc1,inconclusive: 5.19%,
Cc1cc(=O)oc2cc(OCc3ccc(C(=O)N4CCN(c5ccc([N+](=O)[O-])cc5)CC4)cc3)ccc12,,"inconclusive: 14.6 µM [falling, partial curve, poor fit]"
O=C1NN(c2ccccc2)C(=O)/C1=C/c1ccc(-c2ccc(C(=O)O)cc2)o1,,"inconclusive: 20 µM [falling, partial curve, poor fit]"
C(=N\Nc1nncc2ccccc12)/c1ccccc1,,"inconclusive: 15.8 µM [falling, single point]"
COc1cc(Cn2c(N)c(C#N)c3nc4ccccc4nc32)cc(OC)c1,inconclusive: 1.19%,
O=C(COc1ccccc1)Nc1nc2cc3c(cc2s1)OCCO3,inactive: 0.936%,
O=C(Nc1cccc(C(F)(F)F)c1)C1CCN(c2nnc(-n3cccc3)s2)CC1,inactive: -0.202%,
N#CC(C(=O)NC1CC1)c1nc2ccccc2nc1N1CCCC1 (configuration not stated),inconclusive: 7.74%,
Cc1ccc(N2CCN(C(=O)c3cc(COc4c(C)cccc4C)on3)CC2)c(C)c1,inconclusive: -0.249%,
COc1ccc2c(c1)CCC1C2=NN(/C(C)=C/C(C)=O)C1c1cccc(F)c1 (configuration not stated),inconclusive: 0.952%,
COc1ccc([C@H]2CC(=O)C=C(c3ccc(C)cc3)C2)cc1,inconclusive: 7.17%,
O=C(O)CC12CC3CC(C1)CC(n1ncc(NCc4ccccc4)c(Cl)c1=O)(C3)C2,inconclusive: 6.99%,
CC(=O)C1=C(C)N(Cc2ccccc2)C(=O)N[C@@H]1c1cccc(C(F)(F)F)c1,inactive: 1.62%,
CCN(C(=O)/C=C/c1ccc2c(c1)OCO2)c1ccccc1,inconclusive: -13.2%,
CCCNC(=O)C1(CC2CC(c3ccccc3)=NO2)CCN(C(=O)c2ccccc2)CC1 (configuration not stated),inconclusive: 9%,
Fc1ccccc1C(c1nnnn1C1CCCC1)N1CCN(Cc2ccccc2)CC1 (configuration not stated),inactive: 5.49%,
Cc1noc(C)c1CSc1nc2ccccc2s1,inconclusive: -11.1%,
Cc1ccc(NC(=O)Nc2nnc(Cc3ccc(F)cc3)s2)cc1,inconclusive: 6.89%,
Cc1c(OC(C)C(=O)NCc2ccccn2)ccc2c3c(c(=O)oc12)CCC3 (configuration not stated),inconclusive: -7.98%,
Cc1ccc2c(C)nc(N/C(N)=N/S(=O)(=O)c3ccc([N+](=O)[O-])cc3)nc2c1,inconclusive: 5.63%,
COc1cc(-c2cc(C(=O)Nc3ccc(C)c(S(=O)(=O)N4CCOCC4)c3)c3ccccc3n2)cc(OC)c1OC,inconclusive: -16.4%,

# Shown as tab-separated lines: 2 of the compounds above.
SMILES	activity change, negative = inhibition	Potency
Cc1noc(C)c1CSc1nc2ccccc2s1	inconclusive: -11.1%	
Cc1ccc(NC(=O)Nc2nnc(Cc3ccc(F)cc3)s2)cc1	inconclusive: 6.89%	
